These results are taken from the supplement of paper PMC6411743.

The chains behind the UniProt entries cited, without tags or fusion partners. Where a name states a change or a piece, a line headed by the entry shows the natural chain unless it says otherwise.
UniProt O95394: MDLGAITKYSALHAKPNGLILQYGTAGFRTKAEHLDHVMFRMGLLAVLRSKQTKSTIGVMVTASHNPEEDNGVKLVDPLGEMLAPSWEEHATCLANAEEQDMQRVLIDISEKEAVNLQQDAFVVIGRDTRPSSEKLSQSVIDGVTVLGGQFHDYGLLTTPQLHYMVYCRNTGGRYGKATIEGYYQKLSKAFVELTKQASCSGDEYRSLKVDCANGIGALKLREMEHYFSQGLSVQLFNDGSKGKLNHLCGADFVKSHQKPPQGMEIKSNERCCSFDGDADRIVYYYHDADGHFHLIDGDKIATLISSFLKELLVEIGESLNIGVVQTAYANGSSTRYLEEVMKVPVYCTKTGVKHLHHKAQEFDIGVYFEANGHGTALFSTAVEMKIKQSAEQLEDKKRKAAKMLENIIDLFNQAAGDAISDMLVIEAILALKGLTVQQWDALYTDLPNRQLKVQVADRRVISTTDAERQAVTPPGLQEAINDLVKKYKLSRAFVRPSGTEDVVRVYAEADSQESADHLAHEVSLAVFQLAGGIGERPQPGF
UniProt Q9P0J0, whole entry, looked up: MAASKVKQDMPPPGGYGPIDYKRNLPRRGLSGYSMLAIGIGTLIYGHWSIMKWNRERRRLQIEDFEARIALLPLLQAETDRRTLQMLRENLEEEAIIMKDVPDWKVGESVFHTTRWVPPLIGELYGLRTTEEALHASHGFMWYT
UniProt Q9UMS0: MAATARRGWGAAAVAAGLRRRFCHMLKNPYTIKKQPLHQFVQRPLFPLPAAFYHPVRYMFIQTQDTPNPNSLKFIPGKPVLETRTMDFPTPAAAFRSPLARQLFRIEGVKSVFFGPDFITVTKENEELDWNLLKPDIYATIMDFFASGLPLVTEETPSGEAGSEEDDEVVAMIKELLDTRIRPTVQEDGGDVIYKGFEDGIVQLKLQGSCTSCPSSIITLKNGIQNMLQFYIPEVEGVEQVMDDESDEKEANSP
UniProt P53004: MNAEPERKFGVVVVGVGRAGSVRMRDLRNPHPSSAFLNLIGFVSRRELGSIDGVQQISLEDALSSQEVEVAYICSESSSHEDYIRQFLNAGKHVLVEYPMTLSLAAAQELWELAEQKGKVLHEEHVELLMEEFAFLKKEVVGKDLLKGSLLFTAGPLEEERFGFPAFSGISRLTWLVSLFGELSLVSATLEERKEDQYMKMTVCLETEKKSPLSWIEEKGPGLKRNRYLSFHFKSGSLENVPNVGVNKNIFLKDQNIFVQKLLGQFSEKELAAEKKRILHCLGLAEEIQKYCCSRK
UniProt Q9UFF9, whole entry: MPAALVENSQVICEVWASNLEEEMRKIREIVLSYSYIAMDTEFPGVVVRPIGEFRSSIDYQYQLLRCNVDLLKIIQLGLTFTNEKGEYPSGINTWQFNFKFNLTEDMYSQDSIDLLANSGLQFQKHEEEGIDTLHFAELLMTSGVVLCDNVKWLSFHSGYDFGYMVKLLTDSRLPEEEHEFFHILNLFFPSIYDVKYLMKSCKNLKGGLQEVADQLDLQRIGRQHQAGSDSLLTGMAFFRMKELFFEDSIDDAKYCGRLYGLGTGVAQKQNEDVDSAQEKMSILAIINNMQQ
UniProt Q96GG9: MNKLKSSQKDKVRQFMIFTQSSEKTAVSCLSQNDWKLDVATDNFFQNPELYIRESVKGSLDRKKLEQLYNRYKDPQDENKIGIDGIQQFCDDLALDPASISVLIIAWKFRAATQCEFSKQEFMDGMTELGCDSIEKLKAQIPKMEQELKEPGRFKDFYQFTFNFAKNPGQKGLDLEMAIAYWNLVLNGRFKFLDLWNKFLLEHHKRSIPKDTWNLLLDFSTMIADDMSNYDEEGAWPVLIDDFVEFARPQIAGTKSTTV
UniProt P78330: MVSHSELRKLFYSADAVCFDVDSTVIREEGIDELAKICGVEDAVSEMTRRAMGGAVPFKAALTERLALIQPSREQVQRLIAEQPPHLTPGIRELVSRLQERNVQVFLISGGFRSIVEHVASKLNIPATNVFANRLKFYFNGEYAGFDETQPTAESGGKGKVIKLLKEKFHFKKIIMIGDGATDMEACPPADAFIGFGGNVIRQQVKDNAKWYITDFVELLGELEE
UniProt P49116: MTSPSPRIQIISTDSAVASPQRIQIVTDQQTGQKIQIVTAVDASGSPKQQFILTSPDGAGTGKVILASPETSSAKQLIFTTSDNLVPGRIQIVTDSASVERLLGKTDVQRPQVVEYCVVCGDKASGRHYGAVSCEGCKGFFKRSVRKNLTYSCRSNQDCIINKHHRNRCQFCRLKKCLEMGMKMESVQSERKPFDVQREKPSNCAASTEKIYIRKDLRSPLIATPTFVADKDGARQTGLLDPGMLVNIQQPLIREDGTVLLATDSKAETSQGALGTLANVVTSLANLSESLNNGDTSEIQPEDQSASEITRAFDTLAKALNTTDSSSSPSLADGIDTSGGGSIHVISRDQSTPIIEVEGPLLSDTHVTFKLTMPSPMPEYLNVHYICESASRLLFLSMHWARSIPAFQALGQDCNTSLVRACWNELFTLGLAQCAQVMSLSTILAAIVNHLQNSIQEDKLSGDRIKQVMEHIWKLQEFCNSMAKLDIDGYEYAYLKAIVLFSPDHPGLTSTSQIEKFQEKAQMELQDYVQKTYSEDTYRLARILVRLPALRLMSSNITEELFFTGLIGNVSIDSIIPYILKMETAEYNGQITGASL
UniProt Q02083: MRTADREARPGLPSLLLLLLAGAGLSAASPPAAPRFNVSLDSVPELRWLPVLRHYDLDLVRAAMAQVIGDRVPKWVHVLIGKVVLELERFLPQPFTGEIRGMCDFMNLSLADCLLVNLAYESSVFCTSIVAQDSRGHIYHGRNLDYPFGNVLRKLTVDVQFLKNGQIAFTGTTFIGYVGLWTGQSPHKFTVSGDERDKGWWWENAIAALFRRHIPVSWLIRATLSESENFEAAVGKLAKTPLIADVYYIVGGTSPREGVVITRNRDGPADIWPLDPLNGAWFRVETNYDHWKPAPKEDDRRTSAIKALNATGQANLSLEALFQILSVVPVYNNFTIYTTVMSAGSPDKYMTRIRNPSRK
UniProt P53801: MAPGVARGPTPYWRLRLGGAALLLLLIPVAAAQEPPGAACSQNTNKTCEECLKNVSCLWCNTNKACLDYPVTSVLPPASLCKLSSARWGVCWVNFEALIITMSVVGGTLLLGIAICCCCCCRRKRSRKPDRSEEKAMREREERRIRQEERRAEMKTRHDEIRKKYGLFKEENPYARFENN
UniProt Q9GZR1: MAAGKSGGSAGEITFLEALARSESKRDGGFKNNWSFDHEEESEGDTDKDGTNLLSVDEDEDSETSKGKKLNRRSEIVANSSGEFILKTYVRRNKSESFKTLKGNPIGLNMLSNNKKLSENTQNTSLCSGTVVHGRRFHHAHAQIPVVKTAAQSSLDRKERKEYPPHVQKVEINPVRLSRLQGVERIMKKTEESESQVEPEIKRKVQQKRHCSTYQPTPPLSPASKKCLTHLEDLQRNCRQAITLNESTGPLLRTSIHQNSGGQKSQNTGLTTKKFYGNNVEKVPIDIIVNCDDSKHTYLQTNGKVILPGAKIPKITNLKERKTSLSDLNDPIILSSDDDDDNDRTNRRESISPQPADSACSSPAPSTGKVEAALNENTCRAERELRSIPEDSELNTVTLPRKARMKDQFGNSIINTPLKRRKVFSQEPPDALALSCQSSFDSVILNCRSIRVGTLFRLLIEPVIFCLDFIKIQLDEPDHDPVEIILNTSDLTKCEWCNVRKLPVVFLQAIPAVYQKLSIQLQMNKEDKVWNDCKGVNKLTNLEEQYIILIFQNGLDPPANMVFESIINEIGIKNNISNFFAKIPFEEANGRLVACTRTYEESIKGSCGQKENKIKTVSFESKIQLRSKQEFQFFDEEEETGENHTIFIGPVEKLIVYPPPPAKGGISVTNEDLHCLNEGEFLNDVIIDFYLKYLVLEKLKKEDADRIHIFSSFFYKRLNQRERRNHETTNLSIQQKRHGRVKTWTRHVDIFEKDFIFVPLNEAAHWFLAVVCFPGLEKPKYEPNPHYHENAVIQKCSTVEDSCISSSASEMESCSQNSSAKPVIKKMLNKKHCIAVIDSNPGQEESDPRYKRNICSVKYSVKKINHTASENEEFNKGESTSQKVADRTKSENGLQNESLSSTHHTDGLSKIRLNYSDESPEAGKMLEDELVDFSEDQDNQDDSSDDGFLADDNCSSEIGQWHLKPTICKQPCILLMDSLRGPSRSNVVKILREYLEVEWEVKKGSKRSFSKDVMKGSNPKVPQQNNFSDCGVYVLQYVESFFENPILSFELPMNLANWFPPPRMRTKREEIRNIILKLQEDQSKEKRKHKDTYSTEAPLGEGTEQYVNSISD
UniProt O94979: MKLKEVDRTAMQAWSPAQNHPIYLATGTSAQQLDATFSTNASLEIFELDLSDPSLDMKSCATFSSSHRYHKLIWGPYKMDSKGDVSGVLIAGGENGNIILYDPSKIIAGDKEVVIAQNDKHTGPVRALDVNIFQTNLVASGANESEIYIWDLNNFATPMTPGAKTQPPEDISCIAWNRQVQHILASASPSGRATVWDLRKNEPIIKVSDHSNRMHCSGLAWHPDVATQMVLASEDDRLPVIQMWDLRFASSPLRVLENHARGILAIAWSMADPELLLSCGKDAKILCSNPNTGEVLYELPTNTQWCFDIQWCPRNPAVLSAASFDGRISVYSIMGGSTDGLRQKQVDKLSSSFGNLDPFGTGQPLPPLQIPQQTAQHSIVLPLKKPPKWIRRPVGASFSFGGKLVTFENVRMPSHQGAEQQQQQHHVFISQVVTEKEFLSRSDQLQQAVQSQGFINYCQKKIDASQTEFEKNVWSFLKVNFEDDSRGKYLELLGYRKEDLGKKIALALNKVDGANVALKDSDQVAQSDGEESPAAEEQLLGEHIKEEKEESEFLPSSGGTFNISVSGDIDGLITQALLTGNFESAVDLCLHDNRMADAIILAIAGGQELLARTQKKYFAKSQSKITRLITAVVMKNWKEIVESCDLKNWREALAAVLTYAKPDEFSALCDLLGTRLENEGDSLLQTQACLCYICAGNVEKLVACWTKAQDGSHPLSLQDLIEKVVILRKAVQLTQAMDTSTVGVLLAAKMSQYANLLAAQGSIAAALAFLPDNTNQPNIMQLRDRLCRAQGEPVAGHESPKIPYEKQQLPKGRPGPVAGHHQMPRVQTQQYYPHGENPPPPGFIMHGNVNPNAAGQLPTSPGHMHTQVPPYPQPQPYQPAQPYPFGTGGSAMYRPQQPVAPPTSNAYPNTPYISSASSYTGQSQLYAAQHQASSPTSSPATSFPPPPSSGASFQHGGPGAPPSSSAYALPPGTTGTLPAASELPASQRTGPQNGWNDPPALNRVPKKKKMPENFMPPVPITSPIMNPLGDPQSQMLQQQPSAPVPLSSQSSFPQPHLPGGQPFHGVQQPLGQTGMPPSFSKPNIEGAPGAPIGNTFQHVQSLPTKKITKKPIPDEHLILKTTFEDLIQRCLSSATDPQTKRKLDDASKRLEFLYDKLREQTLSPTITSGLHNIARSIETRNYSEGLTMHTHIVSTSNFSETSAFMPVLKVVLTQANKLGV
UniProt A6QL63: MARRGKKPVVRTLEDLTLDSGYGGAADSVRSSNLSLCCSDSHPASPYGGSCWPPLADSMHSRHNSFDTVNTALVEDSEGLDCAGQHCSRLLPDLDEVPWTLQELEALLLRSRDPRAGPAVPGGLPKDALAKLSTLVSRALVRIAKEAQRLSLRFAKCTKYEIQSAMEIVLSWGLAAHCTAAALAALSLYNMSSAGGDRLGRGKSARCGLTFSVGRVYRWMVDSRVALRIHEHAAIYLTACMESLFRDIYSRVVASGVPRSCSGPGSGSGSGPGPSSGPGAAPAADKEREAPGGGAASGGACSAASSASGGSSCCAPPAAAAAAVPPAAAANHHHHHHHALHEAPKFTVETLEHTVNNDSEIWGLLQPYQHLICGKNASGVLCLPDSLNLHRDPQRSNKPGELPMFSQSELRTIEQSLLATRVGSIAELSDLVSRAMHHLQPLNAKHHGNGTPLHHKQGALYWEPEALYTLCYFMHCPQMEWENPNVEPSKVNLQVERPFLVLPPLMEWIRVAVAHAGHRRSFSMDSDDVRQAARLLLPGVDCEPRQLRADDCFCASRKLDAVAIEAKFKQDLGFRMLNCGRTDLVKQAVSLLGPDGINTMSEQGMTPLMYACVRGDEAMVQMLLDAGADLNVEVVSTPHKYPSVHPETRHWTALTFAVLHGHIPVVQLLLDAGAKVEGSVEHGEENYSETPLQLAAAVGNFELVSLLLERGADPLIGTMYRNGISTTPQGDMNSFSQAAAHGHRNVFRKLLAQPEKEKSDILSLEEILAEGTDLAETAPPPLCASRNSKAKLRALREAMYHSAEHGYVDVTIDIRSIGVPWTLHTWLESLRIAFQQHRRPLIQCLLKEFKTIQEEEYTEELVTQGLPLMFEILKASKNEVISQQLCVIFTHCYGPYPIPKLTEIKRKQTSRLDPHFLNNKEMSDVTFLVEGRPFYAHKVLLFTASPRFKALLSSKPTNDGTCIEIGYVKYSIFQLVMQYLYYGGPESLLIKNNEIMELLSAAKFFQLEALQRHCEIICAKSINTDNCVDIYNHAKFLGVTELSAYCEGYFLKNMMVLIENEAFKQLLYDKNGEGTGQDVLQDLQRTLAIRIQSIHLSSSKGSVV

± gives the standard deviation of the averaged measurements. This is one part of the list.

Compound in this experiment: Nc1nc2c(ncn2[C@@H]2O[C@H](COP(=O)(O)OP(=O)(O)OP(=O)(O)O)[C@@H](O)[C@H]2O)c(=O)[nH]1 [guanosine triphosphate]
Briefly: NP40-soluble protein abundance relative to vehicle (solubility fold change) (ratio); higher = more soluble protein in presence of GTP. In outline: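 In three independent experiments, Jurkat crude lysate made by Dounce homogenisation was treated for 10 min at room temperature and then 3 min at 37 °C with eight concentrations ranging from 0.1 to 10 mM. It was then solubilised with 0.8% NP40 plus benzonase for 60 min at 4 °C and ultracentrifuged. The supernatant was TMT-labelled for LC-MS/MS, and each value is the fold change against the detergent-processed vehicle for the same replicate, using vsn-normalised intensities.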

Consider “D6RCQ8 and related entries (UniProt O95394)”, for which the NP40-soluble protein abundance came out at 0.9851 ± 0.0075 (concentration: 0.1mM); 1.01 ± 0.035 (concentration: 0.5mM); 0.958 ± 0.044 (concentration: 1mM); 0.945 ± 0.026 (concentration: 2mM); 0.936 ± 0.074 (concentration: 4mM); 0.916 ± 0.025 (concentration: 6mM). Also, the NP40-soluble protein abundance reads like this: (concentration: 8mM) 0.884 ± 0.03; (concentration: 10mM) 0.873 ± 0.051.

As to “B4DEZ3 and related entries (UniProt Q9P0J0+K7EJE1+E7ENQ6+B4DEZ3)”, the NP40-soluble protein abundance was 1.05 ± 0.15 (concentration: 0.1mM); 0.942 ± 0.16 (concentration: 0.5mM); 0.999 ± 0.13 (concentration: 1mM); 1.12 ± 0.23 (concentration: 2mM); 1.11 ± 0.17 (concentration: 4mM); 1.06 ± 0.21 (concentration: 6mM). The NP40-soluble protein abundance runs as follows: (concentration: 8mM) 0.938 ± 0.1; (concentration: 10mM) 1.01 ± 0.19.

Take “C9J8Q1 and related entries (UniProt Q9UMS0)”: the NP40-soluble protein abundance came to 0.897 ± 0.086 (concentration: 0.1mM); 0.867 ± 0.13 (concentration: 0.5mM); 0.97 ± 0.06 (concentration: 1mM); 0.945 ± 0.15 (concentration: 2mM); 0.912 ± 0.11 (concentration: 4mM); 0.96 ± 0.2 (concentration: 6mM). In addition, the NP40-soluble protein abundance by setting is: (concentration: 8mM) 0.919 ± 0.17; (concentration: 10mM) 0.954 ± 0.12.

Regarding “C9JP16 and related entries (UniProt O75718)”, the NP40-soluble protein abundance amounted to 0.95 ± 0.061 (concentration: 0.1mM); 0.97 ± 0.013 (concentration: 0.5mM); 1.09 ± 0.024 (concentration: 1mM); 1.14 ± 0.099 (concentration: 2mM); 1.22 ± 0.078 (concentration: 4mM); 1.211 ± 0.0066 (concentration: 6mM). In addition, the NP40-soluble protein abundance was 1.29 ± 0.065 (concentration: 8mM) and 1.26 ± 0.17 (concentration: 10mM).

On to “C9J1E1 and related entries (UniProt P53004)”, for which the NP40-soluble protein abundance reads like this: (concentration: 0.1mM) 0.96 ± 0.04; (concentration: 0.5mM) 1 ± 0.024; (concentration: 1mM) 0.86 ± 0.029; (concentration: 2mM) 0.856 ± 0.045; (concentration: 4mM) 0.842 ± 0.031; (concentration: 6mM) 0.842 ± 0.03. Further, the NP40-soluble protein abundance runs as follows: (concentration: 8mM) 0.823 ± 0.057; (concentration: 10mM) 0.796 ± 0.074.

Turning to “B7Z9U0 and related entries (UniProt Q9UFF9)”, the NP40-soluble protein abundance runs as follows: (concentration: 0.1mM) 1.04 ± 0.15; (concentration: 0.5mM) 0.977 ± 0.13; (concentration: 1mM) 1.12 ± 0.19; (concentration: 2mM) 1.09 ± 0.19; (concentration: 4mM) 1.16 ± 0.18; (concentration: 6mM) 1.1 ± 0.17. Further, the NP40-soluble protein abundance (concentration: 8mM) worked out at 1.2 ± 0.27 and the NP40-soluble protein abundance (concentration: 10mM) was determined as 1.21 ± 0.22.

With MYO1G (UniProt B0I1T2), the NP40-soluble protein abundance amounted to 1.12 ± 0.027 (concentration: 0.1mM); 1.47 ± 0.26 (concentration: 0.5mM); 1.95 ± 0.34 (concentration: 1mM); 2.5 ± 0.51 (concentration: 2mM); 2.75 ± 0.45 (concentration: 4mM); 2.67 ± 0.49 (concentration: 6mM). The NP40-soluble protein abundance reads like this: (concentration: 8mM) 2.58 ± 0.3; (concentration: 10mM) 2.35 ± 0.31.

For “C9J8R4 and related entries (UniProt Q96GG9)”, the NP40-soluble protein abundance reads like this: (concentration: 0.1mM) 0.935 ± 0.042; (concentration: 0.5mM) 0.919 ± 0.034; (concentration: 1mM) 0.903 ± 0.049; (concentration: 2mM) 0.889 ± 0.072; (concentration: 4mM) 0.867 ± 0.048; (concentration: 6mM) 0.87 ± 0.044. Moreover, the NP40-soluble protein abundance was found to be 0.842 ± 0.077 (concentration: 8mM) and 0.84 ± 0.084 (concentration: 10mM).

As for “C9JBI3 and related entries (UniProt P78330)”, the NP40-soluble protein abundance reads like this: (concentration: 0.1mM) 1 ± 0.019; (concentration: 0.5mM) 0.962 ± 0.012; (concentration: 1mM) 0.958 ± 0.033; (concentration: 2mM) 0.966 ± 0.047; (concentration: 4mM) 0.928 ± 0.037; (concentration: 6mM) 0.922 ± 0.019. In addition, the NP40-soluble protein abundance was determined as 0.896 ± 0.06 (concentration: 8mM) and 0.897 ± 0.027 (concentration: 10mM).

In the case of “C9J2Y1 and related entries (UniProt P49116)”, the NP40-soluble protein abundance (concentration: 0.1mM) was 1.01 ± 0.05; the NP40-soluble protein abundance (concentration: 0.5mM) turned out to be 1.01 ± 0.036; the NP40-soluble protein abundance (concentration: 1mM) was determined as 0.976 ± 0.047; the NP40-soluble protein abundance (concentration: 2mM) turned out to be 1.01 ± 0.06; the NP40-soluble protein abundance (concentration: 4mM) worked out at 0.973 ± 0.047; the NP40-soluble protein abundance (concentration: 6mM) was determined as 0.936 ± 0.026. Further, the NP40-soluble protein abundance (concentration: 8mM) is 0.966 ± 0.048 and the NP40-soluble protein abundance (concentration: 10mM) amounted to 0.951 ± 0.035.

In the case of “C9J3F5 and related entries (UniProt O95772)”, the NP40-soluble protein abundance (concentration: 0.1mM) amounted to 1.03 ± 0.13; the NP40-soluble protein abundance (concentration: 0.5mM) stood at 0.967 ± 0.087; the NP40-soluble protein abundance (concentration: 1mM) is 0.974 ± 0.034; the NP40-soluble protein abundance (concentration: 2mM) was 1.02 ± 0.13; the NP40-soluble protein abundance (concentration: 4mM) was found to be 0.969 ± 0.073; the NP40-soluble protein abundance (concentration: 6mM) stood at 1.03 ± 0.18. Besides, the NP40-soluble protein abundance is, setting by setting: (concentration: 8mM) 0.933 ± 0.064; (concentration: 10mM) 0.896 ± 0.082.

Turning to “B4DVL2 and related entries (UniProt Q02083)”, the NP40-soluble protein abundance reads like this: (concentration: 0.1mM) 1.04 ± 0.054; (concentration: 0.5mM) 0.959 ± 0.056; (concentration: 1mM) 1.03 ± 0.076; (concentration: 2mM) 1 ± 0.057; (concentration: 4mM) 1.04 ± 0.091; (concentration: 6mM) 0.924 ± 0.051. In addition, the NP40-soluble protein abundance by setting is: (concentration: 8mM) 0.937 ± 0.12; (concentration: 10mM) 0.959 ± 0.039.

SMCHD1 (UniProt A6NHR9): the NP40-soluble protein abundance was found to be 1.05 ± 0.04 (concentration: 0.1mM); 1.06 ± 0.055 (concentration: 0.5mM); 0.999 ± 0.029 (concentration: 1mM); 1.03 ± 0.07 (concentration: 2mM); 1.04 ± 0.056 (concentration: 4mM); 1.04 ± 0.043 (concentration: 6mM). Besides, the NP40-soluble protein abundance came to 1.02 ± 0.051 (concentration: 8mM) and 1.01 ± 0.098 (concentration: 10mM).

In the case of “A8MZH8 and related entries (UniProt P53801)”, the NP40-soluble protein abundance (concentration: 0.1mM) turned out to be 0.992 ± 0.18; the NP40-soluble protein abundance (concentration: 0.5mM) was found to be 1.05 ± 0.18; the NP40-soluble protein abundance (concentration: 1mM) was found to be 1.07 ± 0.15; the NP40-soluble protein abundance (concentration: 2mM) is 1.05 ± 0.15; the NP40-soluble protein abundance (concentration: 4mM) came out at 1 ± 0.19; the NP40-soluble protein abundance (concentration: 6mM) was determined as 1.05 ± 0.18. Also, the NP40-soluble protein abundance by setting is: (concentration: 8mM) 1.06 ± 0.17; (concentration: 10mM) 1.07 ± 0.11.

Take “D6RG09 and related entries (UniProt Q9GZR1)”: the NP40-soluble protein abundance stood at 1.061 ± 0.0062 (concentration: 0.1mM); 1.04 ± 0.048 (concentration: 0.5mM); 1.15 ± 0.057 (concentration: 1mM); 1.02 ± 0.021 (concentration: 2mM); 1.06 ± 0.062 (concentration: 4mM); 1.11 ± 0.12 (concentration: 6mM). Also, the NP40-soluble protein abundance (concentration: 8mM) is 1.05 ± 0.075 and the NP40-soluble protein abundance (concentration: 10mM) turned out to be 1.09 ± 0.055.

For “D6REX3 and related entries (UniProt O94979)”, the NP40-soluble protein abundance (concentration: 0.1mM) came to 0.951 ± 0.021; the NP40-soluble protein abundance (concentration: 0.5mM) worked out at 0.971 ± 0.019; the NP40-soluble protein abundance (concentration: 1mM) is 0.933 ± 0.031; the NP40-soluble protein abundance (concentration: 2mM) worked out at 0.922 ± 0.014; the NP40-soluble protein abundance (concentration: 4mM) is 0.894 ± 0.026; the NP40-soluble protein abundance (concentration: 6mM) was determined as 0.927 ± 0.018. The NP40-soluble protein abundance runs as follows: (concentration: 8mM) 0.888 ± 0.032; (concentration: 10mM) 0.898 ± 0.043.

In the case of UniProt A6QL63 and related entries, the NP40-soluble protein abundance is, setting by setting: (concentration: 0.1mM) 1.21 ± 0.15; (concentration: 0.5mM) 1.11 ± 0.13; (concentration: 1mM) 1.12 ± 0.051; (concentration: 2mM) 1.07 ± 0.075; (concentration: 4mM) 1.07 ± 0.19; (concentration: 6mM) 1.044 ± 0.0032. Also, the NP40-soluble protein abundance by setting is: (concentration: 8mM) 1.06 ± 0.028; (concentration: 10mM) 1.01 ± 0.16.
